US6586453B2, “Substituted thiazoles and the use thereof as inhibitors of plasminogen activator inhibitor-1” (3-Dimensional Pharmaceuticals, Inc., priority 2000, dated 2003)
Some of these results come from one statement about several compounds together.

By UniProt entry, the sequences of proteins in these tests, tags left out. Residues count along the entry.
UniProt P05121, 24-402: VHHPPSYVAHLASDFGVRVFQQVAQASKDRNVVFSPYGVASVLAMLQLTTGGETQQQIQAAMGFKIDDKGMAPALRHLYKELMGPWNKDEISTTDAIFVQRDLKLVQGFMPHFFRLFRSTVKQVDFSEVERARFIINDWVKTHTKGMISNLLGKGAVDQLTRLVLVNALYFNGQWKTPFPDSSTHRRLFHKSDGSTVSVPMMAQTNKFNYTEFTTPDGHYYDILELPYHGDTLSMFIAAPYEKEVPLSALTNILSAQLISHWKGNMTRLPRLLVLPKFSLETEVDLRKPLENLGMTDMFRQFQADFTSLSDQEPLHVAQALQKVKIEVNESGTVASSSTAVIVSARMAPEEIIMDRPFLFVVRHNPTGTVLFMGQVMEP

Target: PAI-1 (Homo sapiens, UniProt P05121)
Test: PAI-1 assay (direct chromogenic assay, inhibitory activity of PAI-1 against uPA)
Type: biochemical
Conditions: substrate N-CBZ-VAL-GLY-ARG p-nitroanilide, 10 minute incubation at 37° C., read-out: PAI-1 inhibitory activity in vitro, IC50
Experimental: The inhibitory activity of PAI-1 against uPA was measured by a direct chromogenic assay using the substrate N-CBZ-VAL-GLY-ARG p-nitroanilide. The tested compound was added to PAI-1 which had been diluted in activity assay buffer (0.05M Hepes, pH 7.5, 0.15M NaCl, containing 0.05% N-octyl-D-glucopyranoside and 250 μg/ml bovine serum albumin). After a 10 minute incubation at 37° C., uPA was added (0.04 units/assay), followed immediately by the addition of substrate. After reequilibration at 37° C., residual uPA activity was quantified by measuring the change in absorbance at 405 nm over 12 minutes. The concentration of active PAI-1 in the assays was the amount required to inhibit 80-85% of uPA as compared to samples containing uPA alone.
Compounds No. 1 to 37 were tested in the PAI-1 assay as described above.

| Compound | IC50 [µM] |
| --- | --- |
| Oc1cccc(Nc2nc(-c3ccc(C(F)(F)F)cc3)cs2)c1 [Compound 26, [4-(4-trifluoromethylphenyl)(1,3-thiazol-2-yl)](3-hydroxyphenyl)amine] | 1.1 to 18.5 |
| COc1ccc(Nc2nc(-c3ccc([N+](=O)[O-])cc3)cs2)c(OC)c1 [Compound 31, [4-(4-nitrophenyl)(1,3-thiazol-2-yl)](2,4-dimethoxyphenyl)amine] | 1.1 to 18.5 |
| Fc1ccc(-c2csc(Nc3cc(Cl)cc(Cl)c3)n2)cc1 [Compound 5, (3,5-dichlorophenyl)[4-(4-fluorophenyl)(1,3-thiazol-2-yl)]amine] | 1.1 to 18.5 |
| 4-{4-(3-ethyl-5,5,8,8-tetramethyl-2-5,6,7,8-tetrahydronaphthyl)-1,3-thiazol-2-yl]amino}-1-hydroxyethylbenzene [Compound 20] | 1.1 to 18.5 |
| Oc1ccccc1Nc1nc(-c2ccc(-c3ccccc3)cc2)cs1 [Compound 9, 2-{[4-(4-phenylphenyl)-1,3-thiazol-2-yl]amino}phenol] | 1.1 to 18.5 |
| COc1cc(Nc2nc(-c3c(C)c([N+](=O)[O-])c(C(C)(C)C)c([N+](=O)[O-])c3C)cs2)cc(OC)c1OC [Compound 27, [4-(4-tert-butyl-2,6-dimethyl-3,5-dinitrophenyl)(1,3-thiazol-2-yl)](3,4,5-trimethoxypheny)amine] | 1.1 to 18.5 |
| CC1(C)CCC(C)(C)c2cc(-c3csc(CC#N)n3)ccc21 [Compound 37, 2-cyanomethyl-4-(5,5,8,8-tetramethyl-2-5,6,7,8-tetrahydronaphthyl)-1,3-thiazole] | 1.1 to 18.5 |
| N#Cc1ccc(Nc2nc(-c3ccc(Cl)cc3Cl)cs2)cc1 [Compound 23, 4-{[4-(2,4-dichlorophenyl)-1,3-thiazol-2-yl]amino}benzenecarbonitrile] | 1.1 to 18.5 |
| CCOC(=O)c1cc(-c2csc(Nc3ccc([N+](=O)[O-])cc3)n2)no1 [Compound 35, (4-nitrophenyl)[4-(isoxazol-3-yl-5-carboxylic acid ethyl ester)-1,3-thiazol-2-yl]amine] | 1.1 to 18.5 |
| Fc1ccc(F)c(Nc2nc(-c3ccc(Cl)c(Cl)c3)cs2)c1 [Compound 7, [4-(3,4-dichlorophenyl)(1,3-thiazol-2-yl)](2,5-difluorophenyl)amine] | 1.1 to 18.5 |
| Cc1c(-c2csc(Nc3cccc(O)c3)n2)c(C)c([N+](=O)[O-])c(C(C)(C)C)c1[N+](=O)[O-] [Compound 29, 3-[4-(4-tert-butyl-2,6-dimethyl-3,5-dinitrophenyl)(1,3-thiazol-2-yl)amino]phenol] | 1.1 to 18.5 |
| FC(F)(F)c1cccc(Nc2nc(-c3cccc(Br)c3)cs2)c1 [Compound 4, [4-(3-bromophenyl)(1,3-thiazol-2-yl)][3-(trifluoromethyl)phenyl]amine] | 1.1 to 18.5 |
| Fc1ccc(-c2csc(Nc3cccc(C(F)(F)F)c3)n2)cc1F [Compound 18, [4-(3,4-difluorophenyl)(1,3-thiazol-2-yl)](3-trifluoromethylphenyl)amine] | 1.1 to 18.5 |
| N#Cc1ccc(Nc2nc(-c3ccc(Br)cc3)cs2)cc1 [Compound 10, 4-{[4-(4-bromophenyl)-1,3-thiazol-2-yl]amino}benzenecarbonitrile] | 1.1 to 18.5 |
| Cc1c(-c2csc(Nc3cccc(C(=O)O)c3)n2)c(C)c([N+](=O)[O-])c(C(C)(C)C)c1[N+](=O)[O-] [Compound 28, 3-[4-(4-tert-butyl-2,6-dimethyl-3,5-dinitrophenyl)(1,3-thiazol-2-yl)amino]benzoic acid] | 1.1 to 18.5 |
| O=[N+]([O-])c1ccc(Nc2nc(-c3ccc(C(F)(F)F)cc3)cs2)cc1 [Compound 15, [4-(4-trifluoromethylphenyl)(1,3-thiazol-2-yl)](4-nitrophenyl)amine] | 1.1 to 18.5 |
| Fc1ccc(-c2csc(Nc3ccc(Cl)c(Cl)c3)n2)c(F)c1 [Compound 19, [4-(2,4-difluorophenyl)(1,3-thiazol-2-yl)](3,4-dichlorophenyl)amine] | 1.1 to 18.5 |
| Fc1ccc(-c2csc(Nc3ccc(Cl)c(Cl)c3)n2)cc1F [Compound 14, [4-(3,4-difluorophenyl)(1,3-thiazol-2-yl)](3,4-dichlorophenyl)amine] | 1.1 to 18.5 |
| O=[N+]([O-])c1ccc(-c2csc(Nc3ccc(OCc4ccccc4)cc3)n2)cc1 [Compound 30, [4-(4-nitrophenyl)(1,3-thiazol-2-yl)](4-benzyloxyphenyl)amine] | 1.1 to 18.5 |

| Compound | IC50 [µM] |
| --- | --- |
| Fc1ccc(-c2csc(Nc3cc(Cl)cc(Cl)c3)n2)cc1F [Compound 16] | 1.1 to 18.5 |
| N#Cc1ccc(Nc2nc(-c3ccc(-c4ccccc4)cc3)cs2)cc1 [Compound 11, 4-{[4-(4-phenylphenyl)-1,3-thiazol-2-yl]amino}benzenecarbonitrile] | 1.1 to 18.5 |
| Fc1ccc(-c2csc(Nc3ccc(Br)c(Cl)c3)n2)cc1F [Compound 17, [4-(3,4-difluorophenyl)(1,3-thiazol-2-yl)](3-chloro-4-bromophenyl)amine] | 1.1 to 18.5 |
| CCc1cc2c(cc1-c1csc(Nc3cccc(C(=O)O)c3)n1)C(C)(C)CCC2(C)C [Compound 3] | 1.1 to 18.5 |
| Fc1ccc(Nc2nc(-c3ccc(-c4ccccc4)cc3)cs2)c(F)c1F [Compound 13, 4-{[4-(4-phenylphenyl)-1,3-thiazol-2-yl]amino}-1,2,3-trifluorobenzene] | 1.1 to 18.5 |
| CC1(C)CCC(C)(C)c2cc(-c3csc(Nc4ccccc4O)n3)ccc21 [Compound 21, 2-{[4-(5,5,8,8-tetramethyl-2-5,6,7,8-tetrahydronaphthyl)-1,3-thiazol-2-yl]amino}phenol] | 1.1 to 18.5 |
| CCc1cc2c(cc1-c1csc(Nc3ccc(C(=O)O)cc3)n1)C(C)(C)CCC2(C)C [Compound 2, 4-{[4-(3-ethyl-5,5,8,8-tetramethyl-2-5,6,7,8-tetrahydronaphthyl)-1,3-thiazol-2-yl]amino}benzoic acid] | 1.1 to 18.5 |
| Fc1ccc(-c2csc(Nc3cc(Cl)cc(Cl)c3)n2)c(F)c1 [Compound 25, [4-(2,4-difluorophenyl)(1,3-thiazol-2-yl)](3,5-dichlorophenyl)amine] | 1.1 to 18.5 |
| FC(F)(F)c1ccc(-c2csc(Nc3cc(Cl)cc(Cl)c3)n2)cc1 [Compound 8] | 1.1 to 18.5 |
| Fc1ccc(Nc2nc(-c3ccc(Cl)cc3)c(-c3ccccc3)s2)c(F)c1 [Compound 12, (2,4-difluorophenyl)[4-(4-chlorophenyl)-5-phenyl-1,3-thiazol-2-yl]amine] | 1.1 to 18.5 |
| Cc1ccc(-c2nc(Nc3cccc(O)c3)sc2C)cc1Cl [Compound 34, [4-(3-chloro-4-methylphenyl)-5-methyl-1,3-thiazol-2-yl](3-hydroxyphenyl)amine] | 1.1 to 18.5 |
| CC1(C)CCC(C)(C)c2cc(-c3csc(Nc4cccc(O)c4)n3)ccc21 [Compound 1, 3-{[4-(5,5,8,8-tetramethyl-2-5,6,7,8-tetrahydronaphthyl)-1,3-thiazol-2-yl]amino}phenol] | 1.1 to 18.5 |
| Cc1ccc(-c2sc(Nc3ccc(N)cc3)nc2-c2ccc(Cl)cc2)cc1 [Compound 24, (4-aminophenyl)[4-(4-chlorophenyl)-5-(4-methylphenyl)-1,3-thiazol-2-yl]amine] | 1.1 to 18.5 |
| Oc1cccc(Nc2nc(-c3ccc(Cl)cc3)cs2)c1 [Compound 33, [4-(4-chlorophenyl)(1,3-thiazol-2-yl)](3-hydroxyphenyl)amine] | 1.1 to 18.5 |
| FC(F)(F)c1ccc(-c2csc(Nc3ccc(Cl)c(Cl)c3)n2)cc1 [Compound 22, [4-(4-trifluoromethylphenyl)(1,3-thiazol-2-yl)](3,4-dichlorophenyl)amine] | 1.1 to 18.5 |
| CCOC(=O)c1cc(-c2csc(Nc3cc(Cl)c(Cl)cc3Cl)n2)no1 [Compound 36, (2,4,5-trichlorophenyl)[4-(isoxazol-3-yl-5-carboxylic acid ethyl ester)-1,3-thiazol-2-yl]amine] | 1.1 to 18.5 |
| Fc1ccc(-c2csc(Nc3ccc(Cl)c(Cl)c3)n2)cc1 [Compound 32, [4-(4-fluorophenyl)(1,3-thiazol-2-yl)](3,4-dichlorophenyl)amine] | 1.1 to 18.5 |
| Clc1cccc(Nc2nc(-c3ccc(Br)cc3)cs2)c1 [Compound 6, [4-(4-bromophenyl)(1,3-thiazol-2-yl)](3-chlorophenyl)amine] | 1.1 to 18.5 |
